In one assay the target is T1, Myc-MKRN4 (human) (UniProt Q13434).
T1 sequence: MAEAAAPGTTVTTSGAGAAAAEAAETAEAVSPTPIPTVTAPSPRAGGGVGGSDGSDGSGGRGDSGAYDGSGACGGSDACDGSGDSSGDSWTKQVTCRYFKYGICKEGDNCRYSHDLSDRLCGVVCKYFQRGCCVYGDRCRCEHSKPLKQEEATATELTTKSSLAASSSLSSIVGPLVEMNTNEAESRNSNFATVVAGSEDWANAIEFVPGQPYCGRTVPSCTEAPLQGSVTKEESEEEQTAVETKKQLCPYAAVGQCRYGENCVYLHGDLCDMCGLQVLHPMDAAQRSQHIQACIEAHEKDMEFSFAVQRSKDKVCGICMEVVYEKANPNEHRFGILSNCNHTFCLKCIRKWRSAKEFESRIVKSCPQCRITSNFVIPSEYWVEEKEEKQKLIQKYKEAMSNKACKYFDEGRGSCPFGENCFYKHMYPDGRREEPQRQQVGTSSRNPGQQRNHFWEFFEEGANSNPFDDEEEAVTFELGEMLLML
The assay can be described thus: affinity purification with mass spectrometry; MKRN4 immunocomplex; GLK peptides (with Ub-Lys650) detected by mass spectrometry; cells and tags not told.

Sequences of proteins named here, by UniProt entry; tags and fusion partners are left off. A change or cut given only in a name is not applied to a line headed by its entry.
UniProt Q8IVH8: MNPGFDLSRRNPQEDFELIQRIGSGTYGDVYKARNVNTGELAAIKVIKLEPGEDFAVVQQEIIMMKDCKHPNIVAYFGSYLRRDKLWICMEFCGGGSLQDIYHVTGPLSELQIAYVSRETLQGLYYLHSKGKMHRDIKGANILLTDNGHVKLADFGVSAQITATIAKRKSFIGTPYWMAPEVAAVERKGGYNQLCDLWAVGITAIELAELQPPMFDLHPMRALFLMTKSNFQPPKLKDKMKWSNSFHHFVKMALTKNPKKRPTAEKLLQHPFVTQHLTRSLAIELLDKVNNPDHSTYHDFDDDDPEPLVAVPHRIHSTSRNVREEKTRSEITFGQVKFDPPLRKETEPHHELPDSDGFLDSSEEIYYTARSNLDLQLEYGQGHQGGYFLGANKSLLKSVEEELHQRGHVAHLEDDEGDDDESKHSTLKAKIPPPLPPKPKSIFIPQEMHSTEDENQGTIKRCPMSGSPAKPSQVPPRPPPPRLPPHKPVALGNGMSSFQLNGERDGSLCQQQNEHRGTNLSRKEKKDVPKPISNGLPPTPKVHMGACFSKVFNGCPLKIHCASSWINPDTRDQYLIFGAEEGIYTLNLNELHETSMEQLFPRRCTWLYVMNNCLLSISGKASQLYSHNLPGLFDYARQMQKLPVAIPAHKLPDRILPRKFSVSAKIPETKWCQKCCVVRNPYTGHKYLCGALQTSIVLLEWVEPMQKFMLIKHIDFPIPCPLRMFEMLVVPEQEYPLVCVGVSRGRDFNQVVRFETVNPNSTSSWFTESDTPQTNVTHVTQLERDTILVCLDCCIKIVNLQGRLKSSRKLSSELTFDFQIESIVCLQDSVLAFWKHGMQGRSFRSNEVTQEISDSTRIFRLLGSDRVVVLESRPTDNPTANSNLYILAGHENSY

Assay [1] has as its target Flag-GLK (A410T) mutant (human) (UniProt Q8IVH8). As to the kind of experiment: affinity purification with mass spectrometry; Flag-tagged GLK immunocomplex isolated from transfected Jurkat T cells; endogenous MKRN4 peptides detected by mass spectrometry.
Assay [2] concerns the target Flag-GLK (K650R) mutant (human) (UniProt Q8IVH8). The assay is described as above.
Assay [3] addresses Flag-GLK wild-type (MAP4K3) (human) (UniProt Q8IVH8). Described as above.

Results are given in words; binding and its absence hold for the method and conditions named. In cells and extracts the contact can be indirect. Here binding means that the protein was enriched with, or labelled near, the bait; the list need not be complete. For some of these results: A no says only that the protein was not detected with the bait. For some of these results: Where a sequence is shown, tags or fusion partners need not be part of it.

“Flag-GLK (MAP4K3), in HEK293T cells (from UniProt Q8IVH8 1-894) (enzyme)”: in the assay with Myc-MKRN4 (human), the binding entry is “binds”.

B1: Makorin ring-finger protein 4 (MKRN4), endogenous (enzyme, UniProt Q13434 1-485)
chain: T1 sequence
For B1, the binding entry in assay [1] was “no binding”; in assay [2], “binds”; in assay [3], “binds”.

For the origin of these results see PMC8762023.
